Reference: patent US20240118269
No signal at the amounts used counts as a negative.

Chains of the proteins cited; added tags and fusions are not shown. Residues count along the entry.
UniProt P16860, 103-134: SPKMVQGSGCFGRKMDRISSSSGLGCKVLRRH

Target: B-type natriuretic peptide (BNP) (Homo sapiens) (UniProt P16860)
Experiment: binding assay
Conditions: 3' TEG-cholesterol on S11 and S12, -400 mV, purified recombinant protein, protein details: recombinant human BNP, Abcam ab87200, folded or branched DNA

| Sequence | binding result (no appreciable H+ current change (-96±9 nA) with same BNP concentration) | binding result (H+ current through nanopores in supported lipid bilayer falls from -90±3 to -51±1 nA with 5x BNP (30 nM nanopore), PBS pH 7.5) |
| --- | --- | --- |
| AAATCCACGTTCTTTAATAGTGGACTCTTGTTCCAAACTGGAACAAAA / AAAGGCTATTCTTTTGATTTATAAGGGATTTTGCCGATTTCGGAAAAA / AAAACAGGATTTTCGCCTGCTGGGGCAAACCAGCGTGGACCGCTTAAA / AAACAACTCTCTCAGGGCCAGGCGGTGAAGGGCAATCAGCTGTTGAAA / AAATCTCACTGGTGAAAAGAAAAACCACCCTGGCGCCCAATACGCAAA / AAATCCCCGCGCGTTGGCCGATTCATTAATGCAGCTGGCACGACAAAA / AGAGTTGGCGTATTGCGGGGA / TGTCGTGACGTGGATTCCGAAATCGGCAGGCGAAATGATTGCCCTTCAC / TCCACTATTAAAGACCAGCTGTTTCACCAGTGAGACAACAGCATCCTGT / AAGCGGTAATAGCCTGTTCCA / GAATCGGACAAGAGTTATAAATCAAAAGCCACGCTCCCTGAG / CGCCTGGGGTTTGCCCCAGCAAAATCCC / GTTTGGACCAACGCGGGCGCCAGGGTGGTTTTTCTCATTAAT [6HB-2C DNA nanopore (no aptamer)] | no binding |  |
| GGCGATTCGTGATCTCTGCTCTCGGTTTCGCGTTCGTTCGTCCACGTTCTTTAATAGTGGACTCTTGTTCCAAACTGGAACAAAA / AAAGGCTATTCTTTTGATTTATAAGGGATTTTGCCGATTTCGGAAAAA / AAAACAGGATTTTCGCCTGCTGGGGCAAACCAGCGTGGACCGCTTAAA / GGCGATTCGTGATCTCTGCTCTCGGTTTCGCGTTCGTTCGCAACTCTCTCAGGGCCAGGCGGTGAAGGGCAATCAGCTGTTGAAA / AAATCTCACTGGTGAAAAGAAAAACCACCCTGGCGCCCAATACGCAAA / AAATCCCCGCGCGTTGGCCGATTCATTAATGCAGCTGGCACGACAAAA / AGAGTTGGCGTATTGCGGGGA / TGTCGTGACGTGGATTCCGAAATCGGCAGGCGAAATGATTGCCCTTCAC / TCCACTATTAAAGACCAGCTGTTTCACCAGTGAGACAACAGCATCCTGT / AAGCGGTAATAGCCTGTTCCA / GAATCGGACAAGAGTTATAAATCAAAAGCCACGCTCCCTGAG / CGCCTGGGGTTTGCCCCAGCAAAATCCC / GTTTGGACCAACGCGGGCGCCAGGGTGGTTTTTCTCATTAAT |  | binds |
